We go through 16 molecules from the supplement of paper PMC11659162.

The list shows a part of the results. The data scatter; read single values as rough.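 The cells are a human neuroglioma line carrying a green fluorescent autophagy reporter.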

The subject of this test is H4 GFP-LC3. The test is described as follows: ACBP immunofluorescence intensity (scaled to control) (AU (scaled)); higher = more intracellular ACBP/DBI. Conditions: 5 µM; 6 h.
Consider `NC1CCc2cc(O)c(O)cc2C1` (stereo unspecified), for which the ACBP immunofluorescence intensity turned out to be 0.902.
`NCC(CS(=O)(=O)O)c1ccc(Cl)cc1` (stereo unspecified) showed an ACBP immunofluorescence intensity of 0.996.
The molecule `CC(=O)N1CC[N+](C)(C)CC1` gave an ACBP immunofluorescence intensity of 0.946.
Molecule `CCCN1CCC[C@@H]2Cc3nc(N)ncc3C[C@H]21` displayed an ACBP immunofluorescence intensity of 0.962.
Molecule `CCCC[N+]1(C)[C@@H]2CC(OC(=O)[C@H](CO)c3ccccc3)C[C@H]1[C@@H]1O[C@@H]12` (stereo partly specified) gave an ACBP immunofluorescence intensity of 0.837.
The molecule `Oc1ccc2c3c1O[C@H]1c4[nH]c5c(c4C[C@@]4(O)[C@@H](C2)N(CC2CC2)CC[C@]314)C[C@@]1(O)[C@H]2Cc3ccc(O)c4c3[C@@]1(CCN2CC1CC1)[C@H]5O4` showed an ACBP immunofluorescence intensity of 0.744.
Take `O=C1CC[C@@]2(O)[C@H]3Cc4ccc(O)c5c4[C@@]2(CCN3CC2CC2)[C@H]1O5`: the ACBP immunofluorescence intensity came to 0.886.
Take `COC(=O)/C=C/C(=O)N[C@@H]1CC[C@@]2(O)[C@H]3Cc4ccc(O)c5c4[C@@]2(CCN3CC2CC2)[C@H]1O5`: the ACBP immunofluorescence intensity worked out at 0.828.
The molecule `N=C(N)NCCCCCCCCCCNC(=N)N` had an ACBP immunofluorescence intensity of 0.859.
For the molecule `CCN(CC)C(=O)N[C@H]1C=C2c3cccc4[nH]cc(c34)C[C@H]2N(C)C1`, the ACBP immunofluorescence intensity came out at 0.866.
In the case of `CN1CCC(c2c[nH]c3ccc(O)cc23)CC1` it was 0.989.
Take `CCC(C)C(NC(=O)C1CCCN1C(=O)C(CCC(=O)O)NC(=O)C(NC(=O)C(Cc1ccccc1)NC(=O)C1CCCN1C(=O)C(N)Cc1ccc(O)cc1)C(C)C)C(=O)O` (stereo unspecified): the ACBP immunofluorescence intensity turned out to be 0.598.
Consider `COc1ccc2[nH]cc(C3=CCNCC3)c2c1`, for which the ACBP immunofluorescence intensity turned out to be 0.788.
The molecule `CCC1(C2=NCCN2)Cc2ccccc2O1` (stereo unspecified) displayed an ACBP immunofluorescence intensity of 0.879.
For the molecule `CN(C)CCN(C)CCc1ccc(Cl)c(Cl)c1`, the ACBP immunofluorescence intensity came out at 0.778.
On to `C=CC[N+]1(C)CC[C@]23c4c5ccc(O)c4O[C@H]2C(=O)CC[C@@]3(O)[C@H]1C5` (stereo partly specified), for which the ACBP immunofluorescence intensity amounted to 0.877.
